Data as given in PubChem BioAssay AID493246 (Drosophila RNAi Screening Center, 2011).
Assay: 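Genes fly cells need to grow and stay alive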 (primary screen). Cells: Drosophila Kc and S2R+ cells. Knock-down reagent: long dsRNA against Drosophila genes. Detection: 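Raw, unnormalised count of remaining cells in each well; per-plate z-scores of cell number underlie the calls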. Reading the numbers: Kc cell number and S2R+ cell number: higher = more cells remaining. Hit rule: 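Active when the per-plate z-score of cell number is 3 or more in the direction of fewer cells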.
The deposit covers about 21,000 reagents; below is an unselected part of those with a known target gene and a result. Of all reagents, 429 (2%) were called active. 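Values are raw and not normalised between plates; calls rest on per-plate z-scores that were not deposited.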 Reagent sequences are not shown. Not stated in the record: the amount of reagent, the time to read-out.

Which result is listed for her (GeneID 34992)?
Kc cell number, rep 1: 1.35e6; Kc cell number, rep 2: 1.43e6; S2R+ cell number, rep 1: 1.34e6; S2R+ cell number, rep 2: 1.39e6; Outcome: inactive

For Nep7 (GeneID 43356), how do the results read?
Kc cell number, rep 1: 1.53e6; Kc cell number, rep 2: 1.62e6; S2R+ cell number, rep 1: 1.02e6; S2R+ cell number, rep 2: 1.14e6; Outcome: inactive

For CG5521 (GeneID 43242), what does the deposit list?
Kc cell number, rep 1: 1.47e6; Kc cell number, rep 2: 1.44e6; S2R+ cell number, rep 1: 1.02e6; S2R+ cell number, rep 2: 1.04e6; Outcome: inactive

For CG4998 (GeneID 39808), what does the deposit list?
Kc cell number, rep 1: 1.41e6; Kc cell number, rep 2: 1.42e6; S2R+ cell number, rep 1: 1.21e6; S2R+ cell number, rep 2: 1.34e6; Outcome: inactive

With Epp (GeneID 42840), what does the deposit list?
Kc cell number, rep 1: 1.58e6; Kc cell number, rep 2: 1.60e6; S2R+ cell number, rep 1: 1.22e6; S2R+ cell number, rep 2: 1.26e6; Outcome: inactive

For Smyd4-2 (GeneID 39414), how do the results read?
Kc cell number, rep 1: 1.72e6; Kc cell number, rep 2: 1.72e6; S2R+ cell number, rep 1: 1.25e6; S2R+ cell number, rep 2: 1.32e6; Outcome: inactive

Which result is listed for CG8679 (GeneID 35395)?
Kc cell number, rep 1: 1.63e6; Kc cell number, rep 2: 1.68e6; S2R+ cell number, rep 1: 1.32e6; S2R+ cell number, rep 2: 4.32e5; Outcome: inactive

For Mms19 (GeneID 40626), what does the deposit list?
Kc cell number, rep 1: 1.63e6; Kc cell number, rep 2: 1.71e6; S2R+ cell number, rep 1: 1.35e6; S2R+ cell number, rep 2: 1.35e6; Outcome: inactive

Which result is listed for ACXB (GeneID 53427)?
Kc cell number, rep 1: 1.53e6; Kc cell number, rep 2: 1.54e6; S2R+ cell number, rep 1: 1.25e6; S2R+ cell number, rep 2: 1.40e6; Outcome: inactive

How did the screen score CHKov2 (GeneID 43068)?
Kc cell number, rep 1: 7.36e5; S2R+ cell number, rep 1: 8.75e5; Outcome: inactive

For CG32409 (GeneID 318016), what was measured?
Kc cell number, rep 1: 1.45e6; Kc cell number, rep 2: 1.56e6; S2R+ cell number, rep 1: 9.80e5; S2R+ cell number, rep 2: 1.10e6; Outcome: inactive

For Hpf1 (GeneID 40718), what was measured?
Kc cell number, rep 1: 1.47e6; Kc cell number, rep 2: 1.54e6; S2R+ cell number, rep 1: 1.30e6; S2R+ cell number, rep 2: 1.34e6; Outcome: inactive

Which result is listed for CG6428 (GeneID 31351)?
Kc cell number, rep 1: 1.48e6; Kc cell number, rep 2: 1.48e6; S2R+ cell number, rep 1: 9.97e5; S2R+ cell number, rep 2: 1.13e6; Outcome: inactive

With lncRNA:CR32368 (GeneID 317997), what was measured?
Kc cell number, rep 1: 1.65e6; Kc cell number, rep 2: 1.71e6; S2R+ cell number, rep 1: 1.19e6; S2R+ cell number, rep 2: 1.34e6; Outcome: inactive

What did the screen give for S1P (GeneID 40399)?
Kc cell number, rep 1: 1.37e6; Kc cell number, rep 2: 1.40e6; S2R+ cell number, rep 1: 1.22e6; S2R+ cell number, rep 2: 1.34e6; Outcome: inactive

How did the screen score ZC3H3 (GeneID 38968)?
Kc cell number, rep 1: 8.52e5; Kc cell number, rep 2: 1.12e6; S2R+ cell number, rep 1: 4.92e5; S2R+ cell number, rep 2: 6.17e5; Outcome: active

With CG17321 (GeneID 35144), what was measured?
Kc cell number, rep 1: 1.55e6; Kc cell number, rep 2: 1.65e6; S2R+ cell number, rep 1: 1.36e6; S2R+ cell number, rep 2: 3.13e5; Outcome: inactive

For CG15814 (GeneID 32765), what does the deposit list?
Kc cell number, rep 1: 1.71e6; Kc cell number, rep 2: 1.78e6; S2R+ cell number, rep 1: 1.03e6; S2R+ cell number, rep 2: 1.17e6; Outcome: inactive

Which result is listed for Scsalpha1 (GeneID 38447)?
Kc cell number, rep 1: 1.39e6; Kc cell number, rep 2: 1.54e6; S2R+ cell number, rep 1: 1.13e6; S2R+ cell number, rep 2: 9.62e5; Outcome: inactive

For awd (GeneID 43739), what was measured?
Kc cell number, rep 1: 1.45e6; Kc cell number, rep 2: 1.44e6; S2R+ cell number, rep 1: 9.86e5; S2R+ cell number, rep 2: 1.14e6; Outcome: inactive

With CG13950 (GeneID 33267), how do the results read?
Kc cell number, rep 1: 1.46e6; Kc cell number, rep 2: 1.52e6; S2R+ cell number, rep 1: 1.04e6; S2R+ cell number, rep 2: 1.19e6; Outcome: inactive

3 successive entries from above:
CG8679 (GeneID 35395) — Kc cell number, rep 1 = 1.63e6; Kc cell number, rep 2 = 1.68e6; S2R+ cell number, rep 1 = 1.32e6; S2R+ cell number, rep 2 = 4.32e5; Outcome = inactive
Mms19 (GeneID 40626) — Kc cell number, rep 1 = 1.63e6; Kc cell number, rep 2 = 1.71e6; S2R+ cell number, rep 1 = 1.35e6; S2R+ cell number, rep 2 = 1.35e6; Outcome = inactive
ACXB (GeneID 53427) — Kc cell number, rep 1 = 1.53e6; Kc cell number, rep 2 = 1.54e6; S2R+ cell number, rep 1 = 1.25e6; S2R+ cell number, rep 2 = 1.40e6; Outcome = inactive
